Results are given in words; binding and its absence hold for the method and conditions named. Some binding calls cover weakened binding; strength is not graded here. Sequences can lack the tags named with a protein.
Biological target: T1, Brn1 kleisin subunit of condensin, Brn1-HA3-His12 (S. cerevisiae) (UniProt P38170)
T1 sequence: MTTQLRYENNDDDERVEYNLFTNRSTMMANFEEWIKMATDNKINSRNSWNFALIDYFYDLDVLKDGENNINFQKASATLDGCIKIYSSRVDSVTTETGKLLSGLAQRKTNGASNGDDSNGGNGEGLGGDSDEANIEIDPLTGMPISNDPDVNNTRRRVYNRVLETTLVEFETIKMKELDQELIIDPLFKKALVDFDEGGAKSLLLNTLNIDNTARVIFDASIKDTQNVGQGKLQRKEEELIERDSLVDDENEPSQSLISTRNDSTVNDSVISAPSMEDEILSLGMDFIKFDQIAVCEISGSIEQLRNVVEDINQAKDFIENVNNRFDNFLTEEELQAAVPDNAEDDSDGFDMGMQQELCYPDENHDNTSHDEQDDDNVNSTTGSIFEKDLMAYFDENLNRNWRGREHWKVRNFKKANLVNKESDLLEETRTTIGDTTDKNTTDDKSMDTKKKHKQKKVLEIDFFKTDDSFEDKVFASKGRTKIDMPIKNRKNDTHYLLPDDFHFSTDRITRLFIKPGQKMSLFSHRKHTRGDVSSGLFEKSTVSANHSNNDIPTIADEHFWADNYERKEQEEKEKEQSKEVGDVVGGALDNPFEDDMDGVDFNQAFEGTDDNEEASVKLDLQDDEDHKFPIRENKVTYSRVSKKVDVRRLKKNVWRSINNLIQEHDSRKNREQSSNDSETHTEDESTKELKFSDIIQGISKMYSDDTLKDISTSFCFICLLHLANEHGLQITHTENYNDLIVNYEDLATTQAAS
Assay: tandem affinity co-purification + SEC

| Binder | binding |
| --- | --- |
| Smc4 subunit of condensin, Smc4-StrepII3 (wild-type) (protein, UniProt Q12267 1-1418) MSDSPLSKRQKRKSAQEPELSLDQGDAEEDSQVENRVNLSENTPEPDLPALEASYSKSYTPRKLVLSSGENRYAFSQPTNSTTTSLHVPNLQPPKTSSRGRDHKSYSQSPPRSPGRSPTRRLELLQLSPVKNSRVELQKIYDRHQSSSKQQSRLFINELVLENFKSYAGKQVVGPFHTSFSAVVGPNGSGKSNVIDSMLFVFGFRANKMRQDRLSDLIHKSEAFPSLQSCSVAVHFQYVIDESSGTSRIDEEKPGLIITRKAFKNNSSKYYINEKESSYTEVTKLLKNEGIDLDHKRFLILQGEVENIAQMKPKAEKESDDGLLEYLEDIIGTANYKPLIEERMGQIENLNEVCLEKENRFEIVDREKNSLESGKETALEFLEKEKQLTLLRSKLFQFKLLQSNSKLASTLEKISSSNKDLEDEKMKFQESLKKVDEIKAQRKEIKDRISSCSSKEKTLVLERRELEGTRVSLEERTKNLVSKMEKAEKTLKSTKHSISEAENMLEELRGQQTEHETEIKDLTQLLEKERSILDDIKLSLKDKTKNISAEIIRHEKELEPWDLQLQEKESQIQLAESELSLLEETQAKLKKNVETLEEKILAKKTHKQELQDLILDLKKKLNSLKDERSQGEKNFTSAHLKLKEMQKVLNAHRQRAMEARSSLSKAQNKSKVLTALSRLQKSGRINGFHGRLGDLGVIDDSFDVAISTACPRLDDVVVDTVECAQHCIDYLRKNKLGYARFILLDRLRQFNLQPISTPENVPRLFDLVKPKNPKFSNAFYSVLRDTLVAQNLKQANNVAYGKKRFRVVTVDGKLIDISGTMSGGGNHVAKGLMKLGTNQSDKVDDYTPEEVDKIERELSERENNFRVASDTVHEMEEELKKLRDHEPDLESQISKAEMEADSLASELTLAEQQVKEAEMAYVKAVSDKAQLNVVMKNLERLRGEYNDLQSETKTKKEKIKGLQDEIMKIGGIKLQMQNSKVESVCQKLDILVAKLKKVKSASKKSGGDVVKFQKLLQNSERDVELSSDELKVIEEQLKHTKLALAENDTNMNETLNLKVELKEQSEQLKEQMEDMEESINEFKSIEIEMKNKLEKLNSLLTYIKSEITQQEKGLNELSIRDVTHTLGMLDDNKMDSVKEDVKNNQELDQEYRSCETQDESEIKDAETSCDNYHPMNIDETSDEVSRGIPRLSEDELRELDVELIESKINELSYYVEETNVDIGVLEEYARRLAEFKRRKLDLNNAVQKRDEVKEQLGILKKKRFDEFMAGFNIISMTLKEMYQMITMGGNAELELVDSLDPFSEGVTFSVMPPKKSWRNITNLSGGEKTLSSLALVFALHKYKPTPLYVMDEIDAALDFRNVSIVANYIKERTKNAQFIVISLRNNMFELAQQLVGVYKRDNRTKSTTIKNIDILNRT | binds |
| Smc4(Q302L)-StrepII3, ATPase-deficient Q-loop mutant (protein, UniProt Q12267 1-1418) MSDSPLSKRQKRKSAQEPELSLDQGDAEEDSQVENRVNLSENTPEPDLPALEASYSKSYTPRKLVLSSGENRYAFSQPTNSTTTSLHVPNLQPPKTSSRGRDHKSYSQSPPRSPGRSPTRRLELLQLSPVKNSRVELQKIYDRHQSSSKQQSRLFINELVLENFKSYAGKQVVGPFHTSFSAVVGPNGSGKSNVIDSMLFVFGFRANKMRQDRLSDLIHKSEAFPSLQSCSVAVHFQYVIDESSGTSRIDEEKPGLIITRKAFKNNSSKYYINEKESSYTEVTKLLKNEGIDLDHKRFLILLGEVENIAQMKPKAEKESDDGLLEYLEDIIGTANYKPLIEERMGQIENLNEVCLEKENRFEIVDREKNSLESGKETALEFLEKEKQLTLLRSKLFQFKLLQSNSKLASTLEKISSSNKDLEDEKMKFQESLKKVDEIKAQRKEIKDRISSCSSKEKTLVLERRELEGTRVSLEERTKNLVSKMEKAEKTLKSTKHSISEAENMLEELRGQQTEHETEIKDLTQLLEKERSILDDIKLSLKDKTKNISAEIIRHEKELEPWDLQLQEKESQIQLAESELSLLEETQAKLKKNVETLEEKILAKKTHKQELQDLILDLKKKLNSLKDERSQGEKNFTSAHLKLKEMQKVLNAHRQRAMEARSSLSKAQNKSKVLTALSRLQKSGRINGFHGRLGDLGVIDDSFDVAISTACPRLDDVVVDTVECAQHCIDYLRKNKLGYARFILLDRLRQFNLQPISTPENVPRLFDLVKPKNPKFSNAFYSVLRDTLVAQNLKQANNVAYGKKRFRVVTVDGKLIDISGTMSGGGNHVAKGLMKLGTNQSDKVDDYTPEEVDKIERELSERENNFRVASDTVHEMEEELKKLRDHEPDLESQISKAEMEADSLASELTLAEQQVKEAEMAYVKAVSDKAQLNVVMKNLERLRGEYNDLQSETKTKKEKIKGLQDEIMKIGGIKLQMQNSKVESVCQKLDILVAKLKKVKSASKKSGGDVVKFQKLLQNSERDVELSSDELKVIEEQLKHTKLALAENDTNMNETLNLKVELKEQSEQLKEQMEDMEESINEFKSIEIEMKNKLEKLNSLLTYIKSEITQQEKGLNELSIRDVTHTLGMLDDNKMDSVKEDVKNNQELDQEYRSCETQDESEIKDAETSCDNYHPMNIDETSDEVSRGIPRLSEDELRELDVELIESKINELSYYVEETNVDIGVLEEYARRLAEFKRRKLDLNNAVQKRDEVKEQLGILKKKRFDEFMAGFNIISMTLKEMYQMITMGGNAELELVDSLDPFSEGVTFSVMPPKKSWRNITNLSGGEKTLSSLALVFALHKYKPTPLYVMDEIDAALDFRNVSIVANYIKERTKNAQFIVISLRNNMFELAQQLVGVYKRDNRTKSTTIKNIDILNRT | binds |
